Laboratory results from PMC10507666 (The Journal of Organic Chemistry, 2023).

Legend:
[1] = general procedure: Fmoc solid-phase peptide synthesis; HATU/DIPEA; details: whole synthesis, λ = 210 nm, TFA salt
[2] = Fmoc solid-phase peptide synthesis; Rink amide AM resin; HATU/DIPEA; details: whole synthesis, TFA salt
[3] = general procedure: Fmoc solid-phase peptide synthesis; Rink amide AM resin; HATU/DIPEA; details: whole synthesis, scale 0.256 mmol, TFA salt

Row | Substance | final HPLC purity [1] [%] | isolated mass ([2]; scale 0.192 mmol) [mg] | isolated yield ([2]; scale 0.192 mmol) [%] | isolated mass ([2]; scale 0.128 mmol) [mg] | isolated yield ([2]; scale 0.128 mmol) [%] | isolated mass [3] [mg] | isolated yield [3] [%]
1 | PEPTIDE1{[CF3S-Tyr].P.W.F.[am]}$$$$V2.0 | >99 | 29.8 | 19 | – | – | – | –
2 | PEPTIDE1{Y.P.[CF3S-Trp].F.[am]}$$$$V2.0 | >99 | – | – | 27.1 | 26 | – | –
3 | PEPTIDE1{Y.P.W.F.[am]}$$$$V2.0 | >99 | – | – | – | – | 44.6 | 24

HELM strings list residues between dots; [ac] is acetyl, [am] amide, other brackets name non-standard units. For part of these data: The same purity stands for every peptide and may come from a single statement.
